For one molecule, binding results are on record in PMC5590740.

Results are given in words; binding and its absence hold for the method and conditions named. Binding seen in cells or lysates may run through a third protein. Some entries that bind do so weakly or less than the wild type.

For this assay, the target named is T1, Bcl-2 (mouse (endogenous in mouse kidney)), P10417.
T1 chain: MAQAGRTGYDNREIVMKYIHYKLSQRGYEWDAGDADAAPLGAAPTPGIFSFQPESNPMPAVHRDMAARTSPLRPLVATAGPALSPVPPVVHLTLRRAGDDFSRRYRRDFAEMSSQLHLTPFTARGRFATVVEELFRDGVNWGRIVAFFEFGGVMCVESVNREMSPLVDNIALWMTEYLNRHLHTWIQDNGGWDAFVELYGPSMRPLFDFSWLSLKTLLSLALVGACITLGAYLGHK
Kind of assay: co-IP; whole kidney lysates of LC3 and PLC3 mice (baseline or post-IRI; with or without rapamycin injection before surgery); precipitated with a mouse monoclonal Bcl-2 antibody, blotted for Bcl-2 and Beclin 1. Conditions: remark: other sources report otherwise.

B1: Beclin 1, O88597 1-448 (protein)
chain: MEGSKASSSTMQVSFVCQRCSQPLKLDTSFKILDRVTIQELTAPLLTTAQAKPGETQEEEANSGEEPFIETRQDGVSRRFIPPARMMSTESANSFTLIGEASDGGTMENLSRRLKVTGDLFDIMSGQTDVDHPLCEECTDTLLDQLDTQLNVTENECQNYKRCLEILEQMNEDDSEQLQRELKELALEEERLIQELEDVEKNRKVVAENLEKVQAEAERLDQEEAQYQREYSEFKRQQLELDDELKSVENQVRYAQIQLDKLKKTNVFNATFHIWHSGQFGTINNFRLGRLPSVPVEWNEINAAWGQTVLLLHALANKMGLKFQRYRLVPYGNHSYLESLTDKSKELPLYCSGGLRFFWDNKFDHAMVAFLDCVQQFKEEVEKGETRFCLPYRMDVEKGKIEDTGGSGGSYSIKTQFNSEEQWTKALKFMLTNLKWGLAWVSSQFYNK
Turning to B1, the binding entry is recorded as “binds”.
